For at least one entry, the source does not settle the construct or the ends of the probe. At least one result comes from cells or an extract, where the contact may be indirect.
Target: His-PCNA in E. coli total protein extract (Homo sapiens) (UniProt P12004)
Assay: pull-down
Settings: purification from extract at 2.0 mg/ml; AS buffer 5 mM MgCl2, eluted with 50 mM Tris pH 7.5; protein in an extract; protein details: His-tag (aptamer target), overexpressed in E. coli; label: 5'-biotin; single-stranded DNA

Amino acid sequences for entries named in this document (tags omitted).
UniProt P12004, whole entry: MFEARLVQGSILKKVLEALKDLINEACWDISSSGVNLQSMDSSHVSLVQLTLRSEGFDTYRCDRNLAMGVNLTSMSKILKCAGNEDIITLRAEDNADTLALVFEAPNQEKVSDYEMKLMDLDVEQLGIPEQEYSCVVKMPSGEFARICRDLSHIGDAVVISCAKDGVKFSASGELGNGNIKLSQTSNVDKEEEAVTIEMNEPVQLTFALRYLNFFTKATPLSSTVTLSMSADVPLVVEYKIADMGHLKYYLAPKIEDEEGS

Sequence: GTTTGCCGGTGGGCAGGTTTAGGGTCTGCTCGGGATTGCGGAGGAACATGCGTCGCAAAC [aptamer B1]
- binding result: binds

Reference: patent US20160060631
